PubChem BioAssay AID1224830 | NIAID – 2016

Aim: 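Regulators of TLR4 signalling towards TNF-alpha in macrophage-like cells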 (primary screen)
Cells: human THP-1 monocytic leukaemia cells, TNF dual-luciferase reporter clone, PMA-differentiated to macrophage-like cells
Knock-down reagent: siRNA pool against human genes, 50 nM
Duration: LPS for 4 h, given about 3 days after siRNA transfection
Challenge: bacterial LPS (TLR4 ligand), 10 ng/ml
Measured: 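TNF firefly reporter luminescence divided by renilla, normalised to the plate median, then turned into a robust z-score for each replicate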
Scale: TNF reporter robust z-score: higher = stronger TNF reporter response to LPS
Hit rule: 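Each well counts as active if its z-score is over 2.8 or under -1.5; controls are left without a call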
Shown is an unselected part of about 18,000 reagents tested. Of all reagents, about 2,900 (16%) were called active. 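Calls are made per well; low scores hint the gene aids the LPS response, high scores that it dampens it.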 Repeated entries: four replicate wells of each siRNA pool.

target gene | TNF reporter robust z-score | Call
ARID5A (AT-rich interaction domain 5A) | -0.54 | inactive
ARID5A (AT-rich interaction domain 5A) | -0.4 | inactive
ARID5A (AT-rich interaction domain 5A) | 0.08 | inactive
ARID5A (AT-rich interaction domain 5A) | -0.03 | inactive
RAB2A (RAB2A, member RAS oncogene family) | -0.87 | inactive
RAB2A (RAB2A, member RAS oncogene family) | -0.74 | inactive
RAB2A (RAB2A, member RAS oncogene family) | -0.9 | inactive
RAB2A (RAB2A, member RAS oncogene family) | -0.88 | inactive
TCEA2 (transcription elongation factor A2) | 0.32 | inactive
TCEA2 (transcription elongation factor A2) | -0.24 | inactive
TCEA2 (transcription elongation factor A2) | -0.82 | inactive
TCEA2 (transcription elongation factor A2) | 0.08 | inactive
UVRAG (UV radiation resistance associated) | -0.62 | inactive
UVRAG (UV radiation resistance associated) | -0.34 | inactive
UVRAG (UV radiation resistance associated) | -0.26 | inactive
UVRAG (UV radiation resistance associated) | 0.36 | inactive
UBR7 (ubiquitin protein ligase E3 component n-recognin 7) | 0.53 | inactive
UBR7 (ubiquitin protein ligase E3 component n-recognin 7) | 0.42 | inactive
UBR7 (ubiquitin protein ligase E3 component n-recognin 7) | 0.69 | inactive
UBR7 (ubiquitin protein ligase E3 component n-recognin 7) | 0.67 | inactive
BTD (biotinidase) | -1.57 | active
BTD (biotinidase) | -0.26 | inactive
BTD (biotinidase) | -0.28 | inactive
BTD (biotinidase) | -0.55 | inactive
PCDHA2 (protocadherin alpha 2) | – | inactive
PCDHA2 (protocadherin alpha 2) | -0.87 | inactive
PCDHA2 (protocadherin alpha 2) | -0.35 | inactive
PCDHA2 (protocadherin alpha 2) | -0.66 | inactive
PCDHA2 (protocadherin alpha 2) | -0.78 | inactive
TTC39C (tetratricopeptide repeat domain 39C) | 0.7 | inactive
TTC39C (tetratricopeptide repeat domain 39C) | 1.28 | inactive
TTC39C (tetratricopeptide repeat domain 39C) | 0.36 | inactive
TTC39C (tetratricopeptide repeat domain 39C) | -0.34 | inactive
MMUT (methylmalonyl-CoA mutase) | -0.87 | inactive
MMUT (methylmalonyl-CoA mutase) | 0.25 | inactive
MMUT (methylmalonyl-CoA mutase) | -0.2 | inactive
MMUT (methylmalonyl-CoA mutase) | -0.3 | inactive
OXA1L (OXA1L mitochondrial inner membrane insertase) | – | inactive
OXA1L (OXA1L mitochondrial inner membrane insertase) | 1.29 | inactive
OXA1L (OXA1L mitochondrial inner membrane insertase) | 0.75 | inactive
OXA1L (OXA1L mitochondrial inner membrane insertase) | 0.83 | inactive
ADAM11 (ADAM metallopeptidase domain 11) | -1.81 | active
ADAM11 (ADAM metallopeptidase domain 11) | -1.14 | inactive
ADAM11 (ADAM metallopeptidase domain 11) | 0.27 | inactive
ADAM11 (ADAM metallopeptidase domain 11) | -1.45 | inactive
DHX9 (DExH-box helicase 9) | 0.18 | inactive
DHX9 (DExH-box helicase 9) | -0.66 | inactive
DHX9 (DExH-box helicase 9) | -0.54 | inactive
DHX9 (DExH-box helicase 9) | -0.58 | inactive
CCDC93 (CCC complex scaffolding subunit CCDC93) | -1.83 | active
CCDC93 (CCC complex scaffolding subunit CCDC93) | -1.44 | inactive
CCDC93 (CCC complex scaffolding subunit CCDC93) | -1.39 | inactive
CCDC93 (CCC complex scaffolding subunit CCDC93) | -0.99 | inactive
BCL6 (BCL6 transcription repressor) | -1.75 | active
BCL6 (BCL6 transcription repressor) | -1.93 | active
BCL6 (BCL6 transcription repressor) | -1.73 | active
BCL6 (BCL6 transcription repressor) | -2.01 | active
GARIN6 (golgi associated RAB2 interactor family member 6) | -0.3 | inactive
GARIN6 (golgi associated RAB2 interactor family member 6) | 0.7 | inactive
GARIN6 (golgi associated RAB2 interactor family member 6) | -0.56 | inactive
GARIN6 (golgi associated RAB2 interactor family member 6) | -0.66 | inactive
TIGD7 (tigger transposable element derived 7) | 1.12 | inactive
TIGD7 (tigger transposable element derived 7) | 6.61 | active
TIGD7 (tigger transposable element derived 7) | 1.84 | inactive
TIGD7 (tigger transposable element derived 7) | 1.08 | inactive
FGF12 (fibroblast growth factor 12) | -0.52 | inactive
FGF12 (fibroblast growth factor 12) | -0.75 | inactive
FGF12 (fibroblast growth factor 12) | -1.43 | inactive
FGF12 (fibroblast growth factor 12) | -0.68 | inactive
RBM12 (RNA binding motif protein 12) | -0.57 | inactive
RBM12 (RNA binding motif protein 12) | 0.62 | inactive
RBM12 (RNA binding motif protein 12) | -0.33 | inactive
RBM12 (RNA binding motif protein 12) | 0.32 | inactive
ERO1A (endoplasmic reticulum oxidoreductase 1 alpha) | 2.22 | inactive
ERO1A (endoplasmic reticulum oxidoreductase 1 alpha) | 2.53 | inactive
ERO1A (endoplasmic reticulum oxidoreductase 1 alpha) | 3.61 | active
ERO1A (endoplasmic reticulum oxidoreductase 1 alpha) | 2.44 | inactive

Targets listed so far whose target name begins with R or r:
target gene | TNF reporter robust z-score | Call
RAB2A (RAB2A, member RAS oncogene family) | -0.87 | inactive
RAB2A (RAB2A, member RAS oncogene family) | -0.74 | inactive
RAB2A (RAB2A, member RAS oncogene family) | -0.9 | inactive
RAB2A (RAB2A, member RAS oncogene family) | -0.88 | inactive
RBM12 (RNA binding motif protein 12) | -0.57 | inactive
RBM12 (RNA binding motif protein 12) | 0.62 | inactive
RBM12 (RNA binding motif protein 12) | -0.33 | inactive
RBM12 (RNA binding motif protein 12) | 0.32 | inactive
